Data reported in patent US20070148663A1 (TRUSTEES OF COLUMBIA UNIVERSITY IN THE CITY OF NEW YORK, published 2007).
Results are given in words; binding and its absence hold for the method and conditions named. Binding seen in cells or lysates may run through a third protein. A result given as binding can be weak or reduced; the word gives no strength. Tags and fused reporters may be left off the sequences shown.

Tests used:
[1] = target: endogenous APC (COS-7 cells); experiment: co-immunoprecipitation from transfected COS-7 cells, anti-EB1 western blot
[2] = target: endogenous APC (COS-7 cells); experiment: co-immunoprecipitation with anti-APC from transfected COS-7 cells, anti-EB1 western blot

B1: GST-EB1-C (other, mouse, UniProt Q61166 165-268, looked up)
chain: ATQRTTAAPKAGPGMVRKNPGVGNGDDEAAELMQQVKVLKLTVEDLEKERDFYFGKLRNIELICQENEGENDPVLQRIVDILYATDEGFVIPDEGGPQEEQEEY
notes: range 165-268; also called glutathione S-transferase fused to EB1-C; not shown: glutathione S-transferase (GST) tag, N-terminal, vector pGEX-2T
[1]
  binding: binds
[2]
  binding: binds
